Where “and” joins values, the source holds several entries; their conditions need not be identical. Equal entries are not always repeated. This is one part of the list. These are further read-outs of the screen, such as a control signal, another cell line or another target. No call is given for them. The list favours compounds with an active or inconclusive main result. The note in brackets gives the kind of curve behind each potency; many fits are weak.
Assay: qHTS Assay for Modulators of Lamin A Splicing
Conditions: HeLa LMNA splicing GFP/RFP minigene ratio, 48 h
Procedure, shortened: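 S3 HeLa cells stably expressing lamin A-EGFP splicing minigene plus DsRed2, 600 cells/well, 48 h compound exposure at 37C. Laser-scanning cytometry; analysed as GFP (500-530 nm)/RFP (575-640 nm) total intensity ratio; 0.5% DMSO vehicle.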

[1] = measured here: GFP splicing reporter channel
[2] = measured here: RFP viability control channel

| SMILES | AC50 [1] | AC50 [2] |
| --- | --- | --- |
| CC(=O)Oc1ccccc1C(=O)Nc1ncc([N+](=O)[O-])s1 | 22.4 µM [rising, single point] | 8.91 µM [rising, partial curve] |
| Cc1[nH]ccc2c1[nH]c1cc(=O)ccc12 | 0.141 µM [falling, single point] | 63.1 nM [falling, full curve, poor fit] and 7.94 nM [falling, full curve, poor fit] |
| c1ccc(C2OCCN3CCCCC23)cc1 (stereo not drawn) | 0.00501 µM [falling, full curve] | – |
| Cc1cc2ccccc2c(=O)n1CC(=O)NCC(=O)N1CCC2(CC1)OCCO2 | – | 1.78 µM [falling, partial curve, poor fit] |
| O=C(O)COc1ccccc1 | 7.94 µM [falling, single point] | – |
| CC(=O)c1cccc(NC(=O)c2cccn(Cc3cccc(C)c3)c2=O)c1 | – | 8.91 µM [falling, partial curve] |
| Oc1c(Cl)cc(Cl)cc1CN1CCN(Cc2ccccc2)CC1 | 35.5 µM [rising, single point] | 35.5 µM [rising, single point] |
| Nc1c2c(nc3sc4c(c13)CCCCC4)CCCC2 | 15.8 µM [rising, partial curve, poor fit] | 20 µM [rising, partial curve, poor fit] |
| O=C1NC(=O)N(c2ccccc2)C(=O)/C1=C/c1ccc([N+](=O)[O-])s1 | 25.1 µM [falling, single point] | – |
| C=CCn1c(O)c(C(CC)=Nc2ccc(N(CC)CC)cc2)c(=O)[nH]c1=O | 22.4 µM [rising, single point] | 25.1 µM [rising, single point] |
| S=C(NCCN1CCOCC1)Nc1cccc(Cl)c1 | 31.6 µM [rising, single point] | 35.5 µM [rising, single point] |
| CN1C[C@H](C(=O)N[C@]2(C)O[C@]3(O)[C@H]4CCCN4C(=O)[C@H](Cc4ccccc4)N3C2=O)C[C@H]2c3cccc4[nH]cc(c34)C[C@@H]21 | 0.00708 µM [falling, full curve] | 0.00631 µM [falling, full curve, poor fit] |
| Cc1c2ccncc2c(C)c2c1[nH]c1ccccc12 | 3.98 µM [falling, partial curve] and 6.31 µM [falling, full curve, poor fit] and 3.98 µM [falling, full curve, poor fit] | 7.94 µM [falling, partial curve] and 10 µM [falling, partial curve] and 11.2 µM [falling, partial curve, poor fit] |
| CCn1nc(C)c(CN2CCCC(C(=O)c3cccc(OC(C)C)c3)C2)c1C (stereo not drawn) | – | 2.82 µM [falling, full curve, poor fit] |
| CCOc1ccc(Cn2c(=O)oc3ccc(C)cc32)cc1OC | – | 11.2 µM [rising, partial curve] |
| CCCCN1C2CCC1CC(OC(c1ccc(F)cc1)c1ccc(F)cc1)C2 (stereo not drawn) | 6.31 µM [falling, full curve, poor fit] | 35.5 µM [falling, single point] |

Single records, as listed above.
`Nc1c2c(nc3sc4c(c13)CCCCC4)CCCC2` in the list: AC50 [1]: 15.8 µM [rising, partial curve, poor fit]; AC50 [2]: 20 µM [rising, partial curve, poor fit]
`CCCCN1C2CCC1CC(OC(c1ccc(F)cc1)c1ccc(F)cc1)C2` (stereo not drawn) in the list: AC50 [1]: 6.31 µM [falling, full curve, poor fit]; AC50 [2]: 35.5 µM [falling, single point]

(next part)

| SMILES | AC50 [1] | AC50 [2] |
| --- | --- | --- |
| Cc1cc(NC(=O)c2noc3c2CCCCC3)no1 | – | 15.8 µM [rising, single point] |
| CCCCC1(CCCC)C(=O)NC(=Nc2cccc(C)c2)NC1=O | 35.5 µM [falling, single point] | – |
| O=c1oc2ccccc2c(O)c1Cc1c(O)c2ccccc2oc1=O | 0.0355 µM [falling, full curve, poor fit] | 0.0501 µM [falling, full curve, poor fit] |
| CC(C)(C)NC(=S)/N=C(\N)N[N+](=O)[O-] | – | 0.00501 µM [falling, full curve, poor fit] |
| Cc1onc(-c2ccccc2)c1C(=O)N1CCC2(CC1)OCCO2 | – | 0.1 µM [falling, single point] |
| Cc1ccccc1N1C(=O)NC(=O)/C(=C\c2cc(C)n(C)c2C)C1=O | – | 15.8 µM [rising, single point] |
| Cc1ccc(C)c(N2CCN(c3ncnc4onc(C)c34)CC2)c1 | 3.55 µM [falling, full curve, poor fit] | – |
| COc1cc([C@H]2c3cc4c(cc3[C@@H](O)[C@@H]3COC(=O)[C@H]23)OCO4)cc(OC)c1OC | 0.00316 µM [falling, full curve] | 0.00316 µM [falling, full curve] |
| Cc1c(N=Cc2c(O)n(Cc3ccco3)c(=O)[nH]c2=O)c(=O)n(-c2ccccc2)n1C | 1 µM [falling, full curve, poor fit] | 0.891 µM [falling, full curve, poor fit] |
| COc1ccc(CN2CCc3nc(N4CCN(c5ccc(F)cc5)CC4)ncc3C2)c(OC)c1OC | – | 11.2 µM [rising, partial curve, poor fit] |
| Cc1[nH]c2ccccc2c1C(=O)CN1CC=C(c2ccccc2)CC1 | 15.8 µM [rising, single point] | 35.5 µM [rising, single point] |
| CCNC[C@H](O)c1cccc(O)c1 | 0.316 µM [falling, full curve, poor fit] | 0.251 µM [falling, full curve] |
| COc1ccc(-n2c(/C=C/c3ccc4c(c3)OCO4)nc3ccccc3c2=O)cc1 | – | 35.5 µM [rising, single point] |
| Cc1cc(C(=O)N=Nc2c(O)n(C)c3ccccc23)c(C)o1 | – | 25.1 µM [rising, single point] |
| CCN(CC)c1ccc(N=Cc2c(O)n(-c3cc(OC)ccc3OC)c(=O)[nH]c2=O)cc1 | 8.91 µM [rising, partial curve, poor fit] | 11.2 µM [rising, partial curve] |
| C[C@]12CC[C@H](O)CC1=CCC1C2CC[C@]2(C)C(=O)CC[C@@H]12 (stereo partly drawn) | 14.1 µM [rising, single point] and 10 µM [rising, partial curve] | 35.5 µM [rising, single point] and 5.01 nM [falling, full curve, poor fit] |

— PubChem BioAssay AID1487 (National Center for Advancing Translational Sciences (NCATS), 2009)
